Among the data in PMC8797470, “Disruption of the pentraxin 3/CD44 interaction as an efficient therapy for triple‐negative breast cancers” (Clinical and Translational Medicine, 2022) are binding values, retold here.

Amino acid sequences for entries named in this document (tags omitted). Residues count along the entry.
UniProt P26022, residues 18-381: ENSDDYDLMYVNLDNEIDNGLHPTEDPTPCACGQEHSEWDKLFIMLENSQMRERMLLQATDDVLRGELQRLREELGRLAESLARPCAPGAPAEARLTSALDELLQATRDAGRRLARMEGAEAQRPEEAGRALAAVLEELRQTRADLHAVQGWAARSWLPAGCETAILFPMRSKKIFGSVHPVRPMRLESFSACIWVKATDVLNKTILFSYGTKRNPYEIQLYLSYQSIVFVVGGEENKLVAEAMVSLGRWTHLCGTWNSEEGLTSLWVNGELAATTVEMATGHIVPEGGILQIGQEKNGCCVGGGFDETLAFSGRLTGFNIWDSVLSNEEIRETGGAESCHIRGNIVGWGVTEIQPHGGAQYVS
UniProt P16070, residues 21-742: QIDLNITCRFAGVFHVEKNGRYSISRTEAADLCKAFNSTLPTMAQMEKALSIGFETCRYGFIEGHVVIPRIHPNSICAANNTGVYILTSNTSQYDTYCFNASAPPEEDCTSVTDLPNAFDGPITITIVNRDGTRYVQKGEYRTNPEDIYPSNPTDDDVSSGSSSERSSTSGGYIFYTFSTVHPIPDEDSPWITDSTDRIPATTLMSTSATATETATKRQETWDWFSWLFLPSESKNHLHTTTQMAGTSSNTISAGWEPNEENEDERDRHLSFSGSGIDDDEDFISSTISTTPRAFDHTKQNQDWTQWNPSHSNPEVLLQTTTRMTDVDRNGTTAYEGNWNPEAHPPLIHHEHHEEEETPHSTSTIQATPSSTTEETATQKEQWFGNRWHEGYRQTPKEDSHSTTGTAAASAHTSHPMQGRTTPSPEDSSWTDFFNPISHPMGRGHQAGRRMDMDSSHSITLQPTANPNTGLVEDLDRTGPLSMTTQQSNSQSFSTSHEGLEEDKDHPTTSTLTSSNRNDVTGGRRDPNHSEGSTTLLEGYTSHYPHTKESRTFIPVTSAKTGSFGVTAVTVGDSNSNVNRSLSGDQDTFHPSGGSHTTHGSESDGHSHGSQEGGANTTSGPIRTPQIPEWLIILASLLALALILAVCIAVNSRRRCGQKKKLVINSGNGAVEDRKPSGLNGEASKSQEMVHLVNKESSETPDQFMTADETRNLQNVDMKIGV

These are yes or no findings as the source states them, for the method shown. In cells and extracts the contact can be indirect. These calls come from enrichment with a bait or labelling near it, and not all partners need be listed.

The test addresses recombinant His/PTX3 (pentraxin 3) from Expi293F human cells (UniProt P26022). Kind of test: affinity purification with mass spectrometry; recombinant His/PTX3 from Expi293F cells as bait, pull-down, LC-MS/MS; source of the prey proteins not stated; only the target purified.

Regarding “CD44 of MDA-MB-231 cells (from UniProt P16070 21-742) (receptor)”, the binding result was “binds”.
